Measured values from paper PMC7235009.
These are yes or no findings as the source states them, for the method shown. Binding seen in cells or lysates may run through a third protein. Some binding calls cover weakened binding; strength is not graded here.

Protein sequences, listed by entry. Tags and fused reporters are not part of them.
UniProt P01106: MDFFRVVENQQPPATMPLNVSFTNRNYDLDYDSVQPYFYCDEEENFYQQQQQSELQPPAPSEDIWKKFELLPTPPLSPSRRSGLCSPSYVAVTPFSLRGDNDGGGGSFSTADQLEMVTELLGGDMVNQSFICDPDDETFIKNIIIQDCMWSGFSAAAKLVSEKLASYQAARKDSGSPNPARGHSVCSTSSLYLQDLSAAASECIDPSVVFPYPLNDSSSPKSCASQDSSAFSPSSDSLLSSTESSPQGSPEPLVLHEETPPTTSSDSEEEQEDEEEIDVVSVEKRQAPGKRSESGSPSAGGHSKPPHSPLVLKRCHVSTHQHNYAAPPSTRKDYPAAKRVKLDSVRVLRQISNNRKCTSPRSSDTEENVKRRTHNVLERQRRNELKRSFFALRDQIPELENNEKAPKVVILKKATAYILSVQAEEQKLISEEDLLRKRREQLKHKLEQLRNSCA
UniProt Q969H0: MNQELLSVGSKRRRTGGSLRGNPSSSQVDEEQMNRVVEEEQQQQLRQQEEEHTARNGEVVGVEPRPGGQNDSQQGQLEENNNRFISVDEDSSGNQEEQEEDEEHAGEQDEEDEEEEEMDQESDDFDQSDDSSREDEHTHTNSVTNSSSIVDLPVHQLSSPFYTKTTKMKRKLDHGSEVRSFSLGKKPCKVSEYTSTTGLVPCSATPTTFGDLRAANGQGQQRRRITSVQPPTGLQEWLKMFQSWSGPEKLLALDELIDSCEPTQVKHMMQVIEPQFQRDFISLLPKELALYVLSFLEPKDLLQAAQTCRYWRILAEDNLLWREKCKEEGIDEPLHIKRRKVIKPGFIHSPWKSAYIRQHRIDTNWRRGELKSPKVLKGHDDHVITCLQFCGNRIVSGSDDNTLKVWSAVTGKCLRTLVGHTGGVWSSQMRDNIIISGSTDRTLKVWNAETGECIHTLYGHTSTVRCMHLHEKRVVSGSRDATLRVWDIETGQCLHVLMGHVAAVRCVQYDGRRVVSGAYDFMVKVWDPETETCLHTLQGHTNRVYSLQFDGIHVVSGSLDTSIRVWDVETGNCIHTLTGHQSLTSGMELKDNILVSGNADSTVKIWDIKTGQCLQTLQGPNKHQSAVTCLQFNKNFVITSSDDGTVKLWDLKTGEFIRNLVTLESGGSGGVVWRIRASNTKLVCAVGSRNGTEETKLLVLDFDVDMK

Molecular target: c-Myc (human (endogenous in CAL27)) (UniProt P01106)
Experiment: co-IP; CAL27 cells treated with Tan IIA (Fig. 4f); sgCtrl and sgAkt stable CAL27 cells treated with Tan IIA for 24 h (Fig. 5e); WCE subjected to co-IP; which protein was precipitated is not told

binding: binds
Substance: FBW7 (from UniProt Q969H0 1-707)
